Measured values as given in paper PMC12194779, “Synergistic Insecticidal Activity of Plant Volatile Compounds: Impact on Neurotransmission and Detoxification Enzymes in Sitophilus zeamais” (Insects, 2025).

System: Sitophilus zeamais
Assay type: in vivo
Settings: topical, 24 h after exposure

Row | SMILES | Contact Toxicity βi (±SD), slope of the mortality regression curve
1 | C=CCc1ccc(OC)cc1 [Compound C11, Estragole] | 0.038 (±0.005)
2 | CC1C(=O)CC2(C(C)C)CC12 (stereo not drawn) [Compound C6, α, β-Thujone (70:10)] | 0.10 (±0.013)
3 | CC1=CC[C@@](O)(C(C)C)CC1 [Compound C5, R-(−)-Terpinen-4-ol] | 0.25 (±0.035)
4 | CCCCCCCCCC(C)=O [Compound C36, 2-Undecanone] | 0.09 (±0.011)
5 | CCCCCCCCC(C)=O [Compound C35, 2-Decanone] | 0.07 (±0.007)
6 | C=CC(C)(O)CCC=C(C)C (stereo not shown) [Compound C28, Linalool] | 0.09 (±0.011)
7 | CC1(C)C(C=C(Cl)Cl)C1C(=O)OC(C#N)c1cccc(Oc2ccccc2)c1 (stereo not shown) [Cypermethrin, reference compound] | 0.08 (±0.019)
8 | CC(=O)OC/C=C(\C)CCC=C(C)C [Compound C37, Geranyl acetate] | 0.02 (±0.003)
9 | C=CCc1ccc(O)c(OC)c1 [Compound C26, Eugenol] | 0.13 (±0.015)
10 | C=CCc1ccc2c(c1)OCO2 [Compound C32, Safrole] | 0.03 (±0.003)
11 | CCCCCCCC(C)=O [Compound C9, 2-Nonanone] | 0.16 (±0.021)
12 | CC(C)=CCC/C(C)=C/CO [Compound C30, Geraniol] | 0.01 (±0.011)
13 | C/C=C/c1ccc(OC)cc1 [Compound C29, trans-Anethol] | 0.06 (±0.008)
14 | CC1(C)C(=O)[C@]2(C)CC[C@H]1C2 [Compound C8, 1R-(−)-Fenchone] | 0.09 (±0.010)
15 | C=C(C)[C@H]1CC=C(C)C(=O)C1 [Compound C3, S-(+)-Carvone] | 0.12 (±0.015)
16 | C=C(C)[C@@H]1CC[C@@H](C)C[C@H]1O [Compound C7, 1R,2S,5R-Isopulegol] | 0.17 (±0.019)
17 | CC(C)=CCC[C@@H](C)CC=O [Compound C33, Citronellal] | 0.09 (±0.012)
18 | C=C(C)[C@@H]1CC=C(C)C(=O)C1 [Compound C4, R-(−)-Carvone] | 0.11 (±0.012)
19 | CCCCCCCC(=O)CCC [Compound C34, 4-Undecanone] | 0.08 (±0.010)
